# In the supplement of paper PMC4683952:
# The list shows a part of the results. Rule as the data show it: active = 2 or more and inactive = the rest. Single values are uncertain here, since repeats match poorly.
# System: Lgr5 (MarsCy1-Lgr5-EGFP, U2OS)
# Assay: cell-surface Lgr5 expression (SCi1 fluorescence, background-subtracted) relative to WT DMSO (fold of DMSO control); higher = more Lgr5 at the plasma membrane
# Conditions: U2OS MarsCy1-Lgr5-EGFP stable; treatment time: overnight; library: ActiProbe-5K (TimTec); 25 µM
row,Structure (SMILES),cell-surface Lgr5 expression
1,CN(C)c1cccc2c(S(=O)(=O)NN)cccc12,inactive: 1.07
2,C[N+](C)(Cc1ccccc1)Cc1ccccc1.[Cl-],inactive: 0.83
3,COc1cc(F)c(S(=O)(=O)N2CCOc3ccccc32)cc1OC,inactive: 1.29
4,CCn1cc(Cn2cc(N)cn2)c(C)n1,inactive: 1.31
5,Fc1ccc(-c2nnc3n2N=C(c2ccc4c(c2)OCO4)CS3)cc1,inactive: 1.2
6,O=[N+]([O-])c1ccc2c(c1)oc1ccc(S(=O)(=O)Nc3ccc4c(c3)OCCO4)cc12,inactive: 0.82
7,Oc1ccc(Cl)cc1-c1cc(C(F)(F)C(F)F)on1,inactive: 1.09
8,N#CC1=C(N)OC2=C(C(=O)CCC2)C1c1ccc(Cl)s1 (stereo not drawn),inactive: 1.15
9,CCCCNC(=O)OCCSC(=S)NC(C)(C)C,inactive: 1.14
10,O=C1OC(c2ccccc2)=N/C1=C\c1coc2c(Cl)cc(Cl)cc2c1=O,inactive: 1.47
11,CN(C)S(=O)(=O)Nc1ccc(Br)cc1,inactive: 1
12,COc1cc(C2Nc3cccc4cccc(c34)N2)cc(OC)c1OC,inactive: 1.1
13,NC(=O)c1sc2sc(C(N)=O)c(N)c2c1N,inactive: 1.22
14,CCCC(C)C(=O)Nc1nnc(C(C)C)s1 (stereo not drawn),inactive: 1.38
15,Cn1c(=O)c2c(ncn2CC(O)CNC=O)n(C)c1=O (stereo not drawn),inactive: 1.23
16,CC1(C)O[C@H]2O[C@H]([C@H]3COC(C)(C)O3)[C@H](O)[C@H]2O1,inactive: 0.978
17,COc1cc(OC)c2nc(N)sc2c1,inactive: 0.979
18,CC(C)Cc1cc(C(=O)O)nc(=O)[nH]1,inactive: 1.28
19,CCn1nccc1CN(C)S(=O)(=O)c1cccs1,inactive: 1.31
20,Cc1nnc(SCC2=C(C(=O)O)N3C(=O)C(NC(=O)Cn4cnnn4)C3SC2)s1 (stereo not drawn),inactive: 1.02
21,O=c1cc2ncc(-c3n[nH]c(-c4cnc5cc(=O)[nH]n5c4)c3[N+](=O)[O-])cn2[nH]1,inactive: 1.18
22,CC1=CCC2C3COC(O3)C(=O)C2C1 (stereo not drawn),inactive: 1.25
23,O=[N+]([O-])c1ccc(F)c(/N=C\c2ccc(Br)s2)c1,inactive: 1.18
24,CCc1nc2sc3c(O)nc(=O)[nH]c3c2c(C(F)(F)F)c1C,inactive: 1.32
25,O=C(O)c1[nH]nc([N+](=O)[O-])c1Cl,inactive: 1.05
26,COC(=O)c1c(NS(C)(=O)=O)sc2c1CCCC2,inactive: 1.12
27,O=[N+]([O-])c1cc(Br)c2nsnc2c1N1CCCCC1,inactive: 1.28

row,Structure (SMILES),cell-surface Lgr5 expression
1,Clc1nc(-c2ccccc2)nc2c1CCC2,inactive: 0.989
2,Cc1nc2sc(C#N)c(N)c2c(C)c1C,inactive: 0.92
3,CN1C(=O)/C(=C\C=C2\CCCN2C)N(C)C1=S,inactive: 1.26
4,COc1ccc(S(=O)(=O)N(C)C)cc1,inactive: 0.897
5,CN1C(=O)C(CC(N)=O)NC1=S (stereo not drawn),inactive: 1.16
6,C=CCNC(=S)N/N=C1/C2CN3CCN(C2)CC1(C)C3,inactive: 1.06
7,Nc1nnnn1/N=C\c1cc(Br)ccc1O,inactive: 1.25
8,C=CCN(CC=C)C(=O)Cc1cccs1,inactive: 1.1
9,CN(C)/C=C1\C(=N)N(C)C(=O)N(C)C1=O,inactive: 1.32
10,c1ccc(N2N=C3N(c4ccccc4)C2N3c2ccccc2)cc1,inactive: 1.38
11,O=C1c2ccccc2-c2nc3ccccc3nc21,inactive: 1.17
12,CN(C)c1cccc2c(S(N)(=O)=O)cccc12,inactive: 1.28
13,O=[N+]([O-])c1cc(C(F)(F)F)c(Cl)cc1Cl,inactive: 1.1
14,CCOC(=O)c1nonc1N,inactive: 1.28
15,Cc1cc2c(c(O)c1-c1c(C)cc3c(c1O)/C(=C\NCSN)C(=O)C(O)=C3C(C)C)/C(=C/NCSN)C(=O)C(O)=C2C(C)C,inactive: 1.37
16,Clc1ccc(/C=N\c2ccc(Cl)cn2)cc1,inactive: 1.2
17,O=c1[nH]cnc2c1oc1ccc(Cl)cc12,inactive: 1.43
18,c1ccc(-n2nnnc2SC2CCC3SC2CCC3Sc2nnnn2-c2ccccc2)cc1 (stereo not drawn),inactive: 1.1
19,c1cc(-c2nc(-c3ccncc3)c(-c3ccncc3)[nH]2)ccn1,inactive: 0.941
20,C#CCn1c(COc2ccc(OC)cc2)nc2ccccc21,inactive: 1.18
21,C#CCOc1c(Br)cc(/C=C2/SC(=S)NC2=O)cc1OC,inactive: 1.31
22,c1ccc(CCNc2ccncn2)nc1,inactive: 1.06
23,CN(C)c1ccc2sc(S)nc2c1,inactive: 0.889
24,S=C(NC1c2ccccc2Oc2ccccc21)c1ccccc1,inactive: 0.805
25,Nc1cc(SCc2cccnc2)nc(N)n1,inactive: 1.04
26,O=c1c2c3c(sc2nc2n1CCCCC2)CCCCC3,inactive: 1.22

# Random excerpt: 2 records from the list, in no set order.
row,Structure (SMILES),cell-surface Lgr5 expression
13,O=[N+]([O-])c1cc(C(F)(F)F)c(Cl)cc1Cl,inactive: 1.1
5,CN1C(=O)C(CC(N)=O)NC1=S (stereo not drawn),inactive: 1.16
